Measurements published in PMC4859692.

Sequences of proteins named here, by UniProt entry; tags and fusion partners are left off. A change or cut given only in a name is not applied to a line headed by its entry.
UniProt Q54IX5: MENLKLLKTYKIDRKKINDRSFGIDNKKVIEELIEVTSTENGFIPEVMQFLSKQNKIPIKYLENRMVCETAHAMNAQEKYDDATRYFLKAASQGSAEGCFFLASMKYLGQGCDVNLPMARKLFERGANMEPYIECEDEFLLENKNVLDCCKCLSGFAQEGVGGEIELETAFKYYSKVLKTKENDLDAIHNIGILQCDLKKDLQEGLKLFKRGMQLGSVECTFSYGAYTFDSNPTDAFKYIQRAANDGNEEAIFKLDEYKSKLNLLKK
UniProt P54647: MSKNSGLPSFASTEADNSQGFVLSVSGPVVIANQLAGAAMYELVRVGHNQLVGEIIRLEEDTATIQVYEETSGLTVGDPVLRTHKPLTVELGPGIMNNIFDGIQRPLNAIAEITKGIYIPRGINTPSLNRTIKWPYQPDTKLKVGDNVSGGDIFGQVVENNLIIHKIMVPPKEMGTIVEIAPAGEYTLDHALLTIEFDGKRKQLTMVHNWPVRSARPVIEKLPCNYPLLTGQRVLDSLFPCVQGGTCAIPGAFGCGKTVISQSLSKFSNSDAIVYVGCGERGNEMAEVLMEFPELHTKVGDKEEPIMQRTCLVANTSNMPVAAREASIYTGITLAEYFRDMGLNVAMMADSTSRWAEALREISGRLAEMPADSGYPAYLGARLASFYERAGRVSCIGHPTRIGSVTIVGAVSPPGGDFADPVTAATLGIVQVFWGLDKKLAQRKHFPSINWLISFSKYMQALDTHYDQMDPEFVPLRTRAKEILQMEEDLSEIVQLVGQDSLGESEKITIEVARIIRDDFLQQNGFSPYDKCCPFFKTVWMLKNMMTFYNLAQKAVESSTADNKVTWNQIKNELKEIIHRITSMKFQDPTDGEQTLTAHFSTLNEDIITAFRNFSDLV

B1: GpmA (endogenous) (enzyme, UniProt Q54NE6 1-249)
chain: MVYKLVLIRHGESTWNKENKFTGWTDVDLSEKGVQEAHEAGKRLLKAGFTFDIAYTSVLKRAIRTLWILLEELNLYWIPVSRQWRLNERMYGSLQGLNKSETAAKYGEDQVLIWRRSYDIPPPALEESDERYPGNDPRYAKLDKSDLPKTECLKDTVERFLPLWNDTIAPTIKSGQKVLIAAHGNSIRALVKYLDNIADDKIVSMDIPTGIPLVYELDENLKPIKHYYLADESELNAAIQAVANQGKAK
B2: PefB (endogenous) (protein, UniProt Q95YL4 1-205)
chain: MYGYGYTPAVVAPTVMSFSFVPPQAFQQCWFYSLYTQIQQAQLYEMQSWFMRVDANRSGTISSGELQYLNIGGTPLGIETATKLIKVFDHNKNGQIDFYEYAALHQFINNLYRCFVANDRNFSGTIDANEIYNALITSGFQLPFPTVNYLFLKLSPSGYGLLFTQFLNLCATVALTRSLFEWNDPMRTGVVHLNLAQLYDIIALV

Each molecule was assayed against T1, Ino1-RFP (Dictyostelium inositol-3-phosphate synthase with a C-terminal RFP tag) (Dictyostelium discoideum) (UniProt Q54N49) (assay: affinity purification with mass spectrometry; Ino1-RFP from ino1- cell lysate held on RFP-Trap agarose beads (1 h, 4°C; lysis 0.5% NP-40, 40 mM Tris-HCl, 20 mM NaCl); SDS-PAGE, Coomassie bands specific to Ino1-RFP and absent in the RFP-only or AX2 control analysed by mass spectrometry; three independent experiments).
T1 sequence: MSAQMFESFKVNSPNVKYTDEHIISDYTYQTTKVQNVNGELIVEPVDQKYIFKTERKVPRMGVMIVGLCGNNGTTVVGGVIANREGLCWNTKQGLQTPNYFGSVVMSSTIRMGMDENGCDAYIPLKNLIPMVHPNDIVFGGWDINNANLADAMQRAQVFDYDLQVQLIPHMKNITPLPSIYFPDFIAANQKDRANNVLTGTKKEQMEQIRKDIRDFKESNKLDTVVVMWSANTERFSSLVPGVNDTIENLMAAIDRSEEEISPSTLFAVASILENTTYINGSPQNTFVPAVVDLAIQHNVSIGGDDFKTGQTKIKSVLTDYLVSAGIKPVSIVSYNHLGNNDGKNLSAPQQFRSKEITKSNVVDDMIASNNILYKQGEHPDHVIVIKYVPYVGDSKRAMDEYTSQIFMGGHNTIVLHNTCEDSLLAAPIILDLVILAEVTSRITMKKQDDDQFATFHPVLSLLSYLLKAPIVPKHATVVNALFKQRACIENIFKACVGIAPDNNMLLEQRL

binding, binds:
Q54IX5 (endogenous) (from UniProt Q54IX5)
V-type proton ATPase catalytic subunit A (from UniProt P54647 1-618)
B1
B2

Results are given in words; binding and its absence hold for the method and conditions named. In cells and extracts the contact can be indirect. These calls come from enrichment with a bait or labelling near it, and not all partners need be listed. Where a sequence is shown, tags or fusion partners need not be part of it.
